The chains are these.
T1: SPA-MreB (MreB fused to the sequential peptide affinity tag) (Bacillus subtilis) (UniProt Q01465)
T1 sequence: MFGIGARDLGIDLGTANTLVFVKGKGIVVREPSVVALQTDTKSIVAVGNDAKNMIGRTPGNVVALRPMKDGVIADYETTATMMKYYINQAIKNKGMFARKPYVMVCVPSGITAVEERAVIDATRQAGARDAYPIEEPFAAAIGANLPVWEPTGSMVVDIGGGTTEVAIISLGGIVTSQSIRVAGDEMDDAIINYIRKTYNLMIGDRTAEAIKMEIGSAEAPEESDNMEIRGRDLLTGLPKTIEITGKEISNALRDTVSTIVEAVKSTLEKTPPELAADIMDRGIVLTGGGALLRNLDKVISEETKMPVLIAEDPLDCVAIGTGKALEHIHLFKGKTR

T2: PerR-SPA (Bacillus subtilis) (UniProt P71086)
T2 sequence: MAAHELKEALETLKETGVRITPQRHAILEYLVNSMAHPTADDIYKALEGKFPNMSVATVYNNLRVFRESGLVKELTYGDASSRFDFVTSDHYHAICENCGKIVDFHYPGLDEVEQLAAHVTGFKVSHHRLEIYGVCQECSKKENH

B1: ComFA (protein, UniProt P39145 1-463)
chain: MNVPVEKNSSFSKELQQTLRSRHLLRTELSFSDEMIEWHIKNGYITAENSISINKRRYRCNRCGQTDQRYFSFYHSSGKNKLYCRSCVMMGRVSEEVPLYSWKEENESNWKSIKLTWDGKLSSGQQKAANVLIEAISKKEELLIWAVCGAGKTEMLFPGIESALNQGLRVCIATPRTDVVLELAPRLKAAFQGADISALYGGSDDKGRLSPLMISTTHQLLRYKDAIDVMIIDEVDAFPYSADQTLQFAVQKARKKNSTLVYLSATPPKELKRKALNGQLHSVRIPARHHRKPLPEPRFVWCGNWKKKLNRNKIPPAVKRWIEFHVKEGRPVFLFVPSVSILEKAAACFKGVHCRTASVHAEDKHRKEKVQQFRDGQLDLLITTTILERGVTVPKVQTGVLGAESSIFTESALVQIAGRTGRHKEYADGDVIYFHFGKTKSMLDARKHIKEMNELAAKVECTD
B2: Maf (protein, UniProt Q02169 1-189)
chain: MTKPLILASQSPRRKELLDLLQLPYSIIVSEVEEKLNRNFSPEENVQWLAKQKAKAVADLHPHAIVIGADTMVCLDGECLGKPQDQEEAASMLRRLSGRSHSVITAVSIQAENHSETFYDKTEVAFWSLSEEEIWTYIETKEPMDKAGAYGIQGRGALFVKKIDGDYYSVMGLPISKTMRALRHFDIRA
B3: ComC (protein, UniProt P15378 1-248)
chain: MLSILFIFGLILGSFYYTAGCRIPLHLSIIAPRSSCPFCRRTLTPAELIPILSFLFQKGKCKSCGHRISFMYPAAELVTACLFAAAGIRFGISLELFPAVVFISLLIIVAVTDIHFMLIPNRILIFFLPFLAAARLISPLDSWYAGLLGAAAGFLFLAVIAAITHGGVGGGDIKLFAVIGFVLGVKMLAAAFFFSVLIGALYGAAAVLTGRLAKRQPLPFAPAIAAGSILAYLYGDSIISFYIKMALG
B4: ComEB (protein, UniProt P32393 1-189)
chain: MERISWNQYFMAQSHLLALRSTCPRLSVGATIVRDKRMIAGGYNGSIAGGVHCADEGCLMIDDHCARTIHAEMNAILQCSKFGVPTDGAEIYVTHYPCIQCCKSIIQAGIKTVYYAEDYKTHPYAQELFEQAGVTVEQVELDEMIVDLKNREKLSFVAGLIGKLADAGLAEEELKKIHEQANTLFTSYV
B5: ComGA (protein, UniProt P25953 1-356)
chain: MDSIEKVSKNLIEEAYLTKASDIHIVPRERDAIIHFRVDHALLKKRDMKKEECVRLISHFKFLSAMDIGERRKPQNGSLTLKLKEGNVHLRMSTLPTINEESLVIRVMPQYNIPSIDKLSLFPKTGATLLSFLKHSHGMLIFTGPTGSGKTTTLYSLVQYAKKHFNRNIVTLEDPVETRDEDVLQVQVNEKAGVTYSAGLKAILRHDPDMIILGEIRDAETAEIAVRAAMTGHLVLTSLHTRDAKGAIYRLLEFGINMNEIEQTVIAIAAQRLVDLACPFCENGCSSVYCRQSRNTRRASVYELLYGKNLQQCIQEAKGNHANYQYQTLRQIIRKGIALGYLTTNNYDRWVYHEKD

No constants are given. Whether binding was seen depends on the method and setting. Binding seen in cells or lysates may run through a third protein. A yes stands for co-enrichment or nearness to the bait. Other partners may have been found. For some assays here: No binding means not detected with the bait. For some assays here: Where a sequence is shown, tags or fusion partners need not be part of it.

The first experiment concerns the target T1, SPA-MreB (MreB fused to the sequential peptide affinity tag) (Bacillus subtilis). The experiment is described as follows: affinity purification with mass spectrometry; SPA-tag purification from B. subtilis cells grown to T2 in competence medium with 0.4% xylose; cryogenic grinding; buffer A (Tris-HCl pH 7,5 10 mM, NaCl 150 mM, EDTA 0,2 mM, Triton 0,1 mM, protease inhibitors); eluted proteins quantified by LC-MS/MS in 3 independent experiments; controls: no SPA-tagged protein (NC60) and PerR-SPA (NC135).
Regarding B1, the binding result was “binds”.
As to B2, the binding entry was “binds”.
As for B3, the binding result is “binds”.
Same read-out and setting: to B4 belongs “binds”.

The next experiment concerns the target T2, PerR-SPA (Bacillus subtilis). Described as above.
With B5, the binding entry was “no binding”.
Same read-out and setting: to B1 belongs “no binding”; to B3, “no binding”.
The same measure, in the same setting: with B4 the entry was “no binding”.

(Values after paper PMC4474612.)
